This test relates to CD2F1 mice, L1210 leukemia ip, survival T/C. Briefly: NCI In Vivo Anticancer Drug Screen. Data for tumor model L1210 Leukemia (intraperitoneal) in CD2F1 (CDF1) mice. The conditions noted are these: higher T/C = longer survival. The method, boiled down: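 Transplantable tumor in mice; compound-treated vs vehicle-treated groups. Read-out = treated/control ratio of the measured endpoint.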

Setting [1] is: T/C endpoint: mean survival time, dose: 100.0 mg/kg/injection, schedule: Q04DX003 (ip), vehicle: saline with Tween-80.
The mark [2] stands for this setting: T/C endpoint: mean survival time, dose: 400.0 mg/kg/injection, schedule: Q04DX003 (ip), vehicle: saline with Tween-80.

The list is a part of this screen's results and no random one: it gathers tests that were run many times, whatever their T/C, doses with no T/C, and many T/C values between a quarter and a half above the control. Further doses and runs are listed elsewhere. T/C gives the treated animals as a percentage of the vehicle group. Some doses have a count of surviving animals in place of a T/C: the source files T/C as zero there, which appears to mark a toxic dose or a test without result, not a measured value. Some survivor counts are full or nearly so, which does not show that the dose was tolerated: survival well below the control is almost never listed, so the zero probably covers shortened survival too. Survivors were counted at the toxicity check, usually on the fifth day, unless a day is given; later deaths do not show. Schedule codes are those of the source, taken here to give the interval after Q, in days (D) or hours (H), and the number of doses after X. Where survival is the endpoint, this PubChem deposit counts one and a half times the control or more as active, and values a quarter to a half above the control carry no call in these data; other NCI protocols may use other cut-offs.

With `CN(Cc1cnc2nc(N)nc(N)c2n1)c1ccc(C(=O)NC(CCC(=O)O)C(=O)NCC(=O)O)cc1` (stereo unspecified), the T/C runs as follows: (T/C endpoint: mean survival time, dose: 25.0 mg/kg/injection, schedule: Q01DX009 (ip), vehicle: sodium bicarbonate) 137 % of control; (T/C endpoint: mean survival time, dose: 50.0 mg/kg/injection, schedule: Q01DX009 (ip), vehicle: sodium bicarbonate) 141 % of control; (T/C endpoint: mean survival time, dose: 75.0 mg/kg/injection, schedule: Q01DX009 (ip), vehicle: sodium bicarbonate) 137 % of control; (T/C endpoint: mean survival time, dose: 100.0 mg/kg/injection, schedule: Q01DX009 (ip), vehicle: sodium bicarbonate) 135 % of control; (T/C endpoint: mean survival time, dose: 125.0 mg/kg/injection, schedule: Q01DX009 (ip), vehicle: sodium bicarbonate) 129 % of control.

As to `C#CCOC(=O)NCCC`, for the setting “T/C endpoint: mean survival time, dose: 400.0 mg/kg/injection, schedule: Q04DX003 (ip), vehicle: Klucel (hydroxypropylcellulose) (HPC)”, the survivor count is 2 of 6.

In the case of `N#CCCCCCCn1cnc2c(N)ncnc21`, the survivor count (T/C endpoint: mean survival time, dose: 400.0 mg/kg/injection, schedule: Q01DX001 (ip), vehicle: saline with Tween-80) is recorded as 3 of 6.

In the case of `Nc1cc(C(F)(F)F)ccc1/C(=C/c1ccc(Cl)cc1)C(=O)O`, for the setting “T/C endpoint: mean survival time, dose: 300.0 mg/kg/injection, schedule: Q04DX003 (ip), vehicle: saline”, the survivor count is reported as 1 of 6.

With `COc1ccc(Nc2ncnc3c2ncn3C2OC(CO)C(O)C2O)cc1` (stereo unspecified), the survivor count runs as follows: (T/C endpoint: mean survival time, dose: 50.0 mg/kg/injection, schedule: Q01DX005 (ip), vehicle: distilled water + Tween-80) 1 of 6; (T/C endpoint: mean survival time, dose: 100.0 mg/kg/injection, schedule: Q01DX005 (ip), vehicle: distilled water + Tween-80) 0 of 6.

Take `OC(CF)CCl` (stereo unspecified): the survivor count was 0 of 6 (T/C endpoint: mean survival time, dose: 100.0 mg/kg/injection, schedule: Q01DX009 (ip), vehicle: saline with Tween-80); 0 of 6 (T/C endpoint: mean survival time, dose: 200.0 mg/kg/injection, schedule: Q01DX009 (ip), vehicle: saline with Tween-80); 5 of 6 (T/C endpoint: mean survival time, dose: 400.0 mg/kg/injection, schedule: Q04DX003 (ip), vehicle: saline).

`N#C/C(=C\c1ccc(-c2ccccc2)cc1)c1ccc(Cl)cc1`: the survivor count under setting [1] was 6 of 6 and the survivor count under setting [2] is on record as 5 of 6.

For `COc1cc(C)n2nnnc2n1`, the survivor count by setting is: (T/C endpoint: mean survival time, dose: 200.0 mg/kg/injection, schedule: Q01DX001 (ip), vehicle: saline) 0 of 3; (T/C endpoint: mean survival time, dose: 400.0 mg/kg/injection, schedule: Q01DX001 (ip), vehicle: saline) 0 of 3.

In the case of `O=c1c(O)c(O)c1=O.[NH2-].[NH2-].[NH2-].[NH2-].[NH2-].[Ru+5]`, the T/C (T/C endpoint: median survival time, dose: 12.5 mg/kg/injection, schedule: Q01DX005 (ip), vehicle: saline) is 130 % of control and the T/C (T/C endpoint: median survival time, dose: 25.0 mg/kg/injection, schedule: Q01DX005 (ip), vehicle: suspension in saline) is 130 % of control. Besides, the survivor count was 0 of 6 (T/C endpoint: median survival time, dose: 50.0 mg/kg/injection, schedule: Q01DX005 (ip), vehicle: saline) and 0 of 6 (T/C endpoint: median survival time, dose: 50.0 mg/kg/injection, schedule: Q01DX005 (ip), vehicle: suspension in saline).

For the molecule `O=C(CBr)CCS(=O)(=O)c1ccc(Cl)cc1`, the survivor count is listed as 0 of 6 under setting [1]; 0 of 6 (T/C endpoint: mean survival time, dose: 200.0 mg/kg/injection, schedule: Q04DX003 (ip), vehicle: saline with Tween-80); 0 of 6 under setting [2].

As to `O=C(O)CN(CC(=O)O)C1CCCCC1N(CC(=O)O)CC(=O)O.[Cl][Pt+2][Cl]` (stereo unspecified), the survivor count reads like this: (T/C endpoint: median survival time, dose: 160.0 mg/kg/injection, schedule: Q04DX003 (ip), vehicle: saline) 0 of 6; (T/C endpoint: median survival time, dose: 320.0 mg/kg/injection, schedule: Q04DX003 (ip), vehicle: saline) 0 of 6.

The values are drawn from PubChem BioAssay AID256 (DTP/NCI, 2004).
